Measurements from article PMC7807036.
For at least one entry, the source does not settle the construct or the ends of the probe.

Tested on: thrombin (human)
Test: binding assay
Conditions: exosite II; Clotting: 20 mM Tris, 150 mM NaCl, 5 mM KCl, 1 mM MgCl2, 1 mM CaCl2, pH 7.4, 12 nM thrombin, 25 C, 5 min; commercial protein; folded or branched …

In the case of TAGTCCGTGGTAGGGCAGGTTGGGGTGACT [HD22], the Kd is reported as 500 pM.
